The target in this assay is T1, Ada2b-PA (Drosophila melanogaster) (UniProt Q8I8V0).
T1 sequence: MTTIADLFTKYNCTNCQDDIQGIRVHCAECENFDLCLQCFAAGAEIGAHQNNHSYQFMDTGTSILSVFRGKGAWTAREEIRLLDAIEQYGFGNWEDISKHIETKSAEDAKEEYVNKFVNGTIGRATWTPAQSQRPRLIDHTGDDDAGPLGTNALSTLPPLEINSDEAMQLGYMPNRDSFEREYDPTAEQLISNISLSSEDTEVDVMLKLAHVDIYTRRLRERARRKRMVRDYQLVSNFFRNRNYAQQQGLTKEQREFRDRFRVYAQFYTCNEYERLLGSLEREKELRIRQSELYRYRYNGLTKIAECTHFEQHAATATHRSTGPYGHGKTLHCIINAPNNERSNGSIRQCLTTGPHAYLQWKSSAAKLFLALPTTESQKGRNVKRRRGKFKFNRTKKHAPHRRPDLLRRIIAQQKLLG
Nature of the assay: co-IP; subunits expressed in Sf21 cells using Baculovirus; His-FLAG-Ada2b-PA with a single other subunit, tested for direct interaction; western blots with anti-Gcn5, anti-Ada3, anti-Sgf29, anti-FLAG. On the technique in general: Immunoblotting shows a protein as a band on a membrane.

The chains behind the UniProt entries cited, without tags or fusion partners.
UniProt O76216: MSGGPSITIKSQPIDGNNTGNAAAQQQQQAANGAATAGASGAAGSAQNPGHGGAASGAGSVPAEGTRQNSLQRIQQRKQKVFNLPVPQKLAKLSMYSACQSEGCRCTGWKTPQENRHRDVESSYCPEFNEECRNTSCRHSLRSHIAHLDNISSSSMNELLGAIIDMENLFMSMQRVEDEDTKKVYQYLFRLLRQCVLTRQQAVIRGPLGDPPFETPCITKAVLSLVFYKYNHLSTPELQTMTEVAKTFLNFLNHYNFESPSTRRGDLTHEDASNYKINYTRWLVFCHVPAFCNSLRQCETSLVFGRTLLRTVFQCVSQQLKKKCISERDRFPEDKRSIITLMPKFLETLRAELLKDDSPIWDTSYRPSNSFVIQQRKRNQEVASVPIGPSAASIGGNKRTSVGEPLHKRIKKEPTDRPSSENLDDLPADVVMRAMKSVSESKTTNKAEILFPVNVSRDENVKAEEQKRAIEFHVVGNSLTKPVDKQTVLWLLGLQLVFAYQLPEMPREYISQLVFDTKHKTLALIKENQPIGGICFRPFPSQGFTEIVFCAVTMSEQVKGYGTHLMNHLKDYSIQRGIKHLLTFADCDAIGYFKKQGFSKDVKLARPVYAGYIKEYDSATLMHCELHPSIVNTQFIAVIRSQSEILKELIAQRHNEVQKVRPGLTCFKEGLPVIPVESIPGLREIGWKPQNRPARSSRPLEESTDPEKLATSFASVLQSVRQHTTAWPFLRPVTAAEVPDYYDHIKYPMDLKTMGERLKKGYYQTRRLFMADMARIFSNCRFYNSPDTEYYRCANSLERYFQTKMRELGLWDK

From paper PMC8917357 come the findings set out here.

Results are given in words; binding and its absence hold for the method and conditions named. In cells and extracts the contact can be indirect. Some results given as binding are weak or reduced against the parent protein; the word gives no strength.

For the substance “Gcn5 (from UniProt O76216 1-813) (enzyme)”, the binding result was “binds”.
